Source: paper PMC4266902, “Néstor-Guillermo Progeria Syndrome: a biochemical insight into Barrier-to-Autointegration Factor 1, alanine 12 threonine mutation” (BMC Molecular Biology, 2014)
Results are given in words; binding and its absence hold for the method and conditions named. Binding seen in cells or lysates may run through a third protein. A result given as binding can be weak or reduced; the word gives no strength. Where a sequence is shown, tags or fusion partners need not be part of it.

Molecular target: T1, 3x FLAG-tagged wild type BANF1 (human) (UniProt O75531)
T1 sequence: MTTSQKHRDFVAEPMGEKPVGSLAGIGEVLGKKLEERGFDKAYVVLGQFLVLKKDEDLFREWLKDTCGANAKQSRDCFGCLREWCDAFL
Experiment: co-IP; HeLa cells transfected for 24 h; total protein extract treated with Benzonase to degrade genomic DNA; 3x FLAG BANF1 immunoprecipitated with M2 magnetic FLAG beads; eluent blotted for Lamin, Emerin and Histone H3

binding: binds
Substance: Lamin (human (endogenous in HeLa))
